According to US20070129334A1, “Orally Active Purine-Based Inhibitors of Heat Shock Protein 90” (CONFORMA THERAPEUTICS CORPORATION, priority 2001, published 2007):
At least one structure is not confirmed: it was looked up by name or label, or the drawing left a doubt.

System: Purified native Hsp90 protein (mixture of alpha and beta) from HeLa cells
Experiment: Fluorescence-based competitive binding assay for biotinylated-geldanamycin to purified Hsp90
Design: species or system human
Conditions: HSP90 binding ability; competition with biotin-GM

**Q.** `C#CCCCn1c(Cc2cc(OC)ccc2OC)nc2c(N)nc(F)nc21` [Compound 2, 8-(2,5-dimethoxybenzyl)-N9-pentynyl-2-fluoro adenine] was tested. Which IC50 did it give?
**A.** 2000 nM
